Values from PubChem BioAssay AID1053209 (Peter MacCallum Cancer Centre, 2014)

Purpose: 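Follow-up of single siRNAs that strengthen doxorubicin killing in osteosarcoma cells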 (follow-up of hits)
Cells: mouse primary osteosarcoma cells
Reagent: single siRNA against mouse genes, 25 nM (text also states 40 nM)
Duration: about 120 h (48 h before drug, then 72 h with drug)
Treatment: doxorubicin 100 nM (about IC30-40), added 48 h after transfection, for 72 h
Detection: 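ATP-based luminescent viability, with or without doxorubicin, relative to non-targeting control NT1, mean of two replicates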
Scale: viability with doxorubicin, vs NT1: higher = more viable cells under doxorubicin; viability without drug, vs NT1: higher = more viable cells without drug
Hit rule: 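Active when doxorubicin viability is at most 0.7 of NT1 and drug-free viability lies between 0.7 and 1.1, class LC dox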
Shown is a random part of about 1,580 deposited reagents. In the full data, 207 (13%) were called active. 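Rows are single siRNAs; four siRNAs per gene were tested, a gene counting as confirmed only when at least two agree.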 The numbers tell different reagents against one gene apart. Not all columns of the deposit are shown.

Snrpc #1 → combined effect class = low viability only with doxorubicin; normal without drug; viability with doxorubicin, vs NT1 = 0.37; viability without drug, vs NT1 = 0.74; Call = active
Snrpc #2 → combined effect class = normal viability with and without drug; viability with doxorubicin, vs NT1 = 0.82; viability without drug, vs NT1 = 0.86; Call = inactive
Snrpc #3 → combined effect class = normal viability with and without drug; viability with doxorubicin, vs NT1 = 0.73; viability without drug, vs NT1 = 0.8; Call = inactive
Snrpc #4 → combined effect class = normal viability with and without drug; viability with doxorubicin, vs NT1 = 0.76; viability without drug, vs NT1 = 0.98; Call = inactive
Rps19 #1 → combined effect class = low viability with and without drug; viability with doxorubicin, vs NT1 = 0.61; viability without drug, vs NT1 = 0.64; Call = inactive
Rps19 #2 → combined effect class = low viability with and without drug; viability with doxorubicin, vs NT1 = 0.67; viability without drug, vs NT1 = 0.66; Call = inactive
Rps19 #3 → combined effect class = low viability with and without drug; viability with doxorubicin, vs NT1 = 0.26; viability without drug, vs NT1 = 0.3; Call = inactive
Rps19 #4 → combined effect class = low viability with and without drug; viability with doxorubicin, vs NT1 = 0.5; viability without drug, vs NT1 = 0.46; Call = inactive
Sf3b6 #1 → combined effect class = low viability with and without drug; viability with doxorubicin, vs NT1 = 0.25; viability without drug, vs NT1 = 0.34; Call = inactive
Sf3b6 #2 → combined effect class = low viability with and without drug; viability with doxorubicin, vs NT1 = 0.38; viability without drug, vs NT1 = 0.58; Call = inactive
Sf3b6 #3 → combined effect class = low viability with and without drug; viability with doxorubicin, vs NT1 = 0.15; viability without drug, vs NT1 = 0.36; Call = inactive
Sf3b6 #4 → combined effect class = normal viability with and without drug; viability with doxorubicin, vs NT1 = 1.03; viability without drug, vs NT1 = 0.95; Call = inactive
Srsf2 #1 → combined effect class = normal viability with and without drug; viability with doxorubicin, vs NT1 = 1.01; viability without drug, vs NT1 = 0.88; Call = inactive
Srsf2 #2 → combined effect class = low viability with and without drug; viability with doxorubicin, vs NT1 = 0.56; viability without drug, vs NT1 = 0.7; Call = inactive
Srsf2 #3 → combined effect class = normal viability with and without drug; viability with doxorubicin, vs NT1 = 1.04; viability without drug, vs NT1 = 0.82; Call = inactive
Srsf2 #4 → combined effect class = normal viability with and without drug; viability with doxorubicin, vs NT1 = 0.92; viability without drug, vs NT1 = 0.87; Call = inactive

Limited to “viability with doxorubicin, vs NT1” (2 entries from above):
Rps19 #3	0.26
Rps19 #4	0.5
